Experimental findings from PMC11871287 are described below.

These are yes or no findings as the source states them, for the method shown. Binding seen in cells or lysates may run through a third protein. Some binding calls cover weakened binding; strength is not graded here. For some assays here: Tags and fused reporters may be left off the sequences shown.

Experiment [1] has as its target T1, EGFP-KBP (kinesin-binding protein, KIAA1279) (human) (UniProt Q96EK5).
T1 sequence: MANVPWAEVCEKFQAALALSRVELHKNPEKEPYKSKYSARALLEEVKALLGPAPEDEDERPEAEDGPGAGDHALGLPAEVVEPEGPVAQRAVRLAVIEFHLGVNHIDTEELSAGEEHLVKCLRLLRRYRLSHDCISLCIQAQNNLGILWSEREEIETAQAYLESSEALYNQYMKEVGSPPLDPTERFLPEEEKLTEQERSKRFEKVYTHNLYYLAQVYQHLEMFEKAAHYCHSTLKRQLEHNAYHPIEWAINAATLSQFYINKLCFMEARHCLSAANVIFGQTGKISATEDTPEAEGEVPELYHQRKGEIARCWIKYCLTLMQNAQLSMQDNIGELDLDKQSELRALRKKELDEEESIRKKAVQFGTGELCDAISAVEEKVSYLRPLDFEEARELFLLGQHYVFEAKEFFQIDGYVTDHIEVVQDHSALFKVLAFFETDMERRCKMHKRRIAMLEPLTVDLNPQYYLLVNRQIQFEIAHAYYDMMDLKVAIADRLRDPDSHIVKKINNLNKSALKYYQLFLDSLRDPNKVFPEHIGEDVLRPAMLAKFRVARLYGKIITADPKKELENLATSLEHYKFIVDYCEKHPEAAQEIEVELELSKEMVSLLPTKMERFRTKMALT
In words: co-IP; N2a cells cotransfected with EGFP-KBP and mCherry, mCh-CHMP2b or mCh-CHMP2b^intron5; lysis in 50 mM Tris, 150 mM NaCl, 1% Triton X-100, 0.5% deoxycholic acid; GFP-Trap agarose beads overnight at 4°C; blots probed with mCherry and GFP antibodies.

Experiment [2] addresses T2, endogenous kinesin-binding protein (KBP) of hippocampal neurons (rat (endogenous in hippocampal neurons)) (UniProt Q4G074).
T2 sequence: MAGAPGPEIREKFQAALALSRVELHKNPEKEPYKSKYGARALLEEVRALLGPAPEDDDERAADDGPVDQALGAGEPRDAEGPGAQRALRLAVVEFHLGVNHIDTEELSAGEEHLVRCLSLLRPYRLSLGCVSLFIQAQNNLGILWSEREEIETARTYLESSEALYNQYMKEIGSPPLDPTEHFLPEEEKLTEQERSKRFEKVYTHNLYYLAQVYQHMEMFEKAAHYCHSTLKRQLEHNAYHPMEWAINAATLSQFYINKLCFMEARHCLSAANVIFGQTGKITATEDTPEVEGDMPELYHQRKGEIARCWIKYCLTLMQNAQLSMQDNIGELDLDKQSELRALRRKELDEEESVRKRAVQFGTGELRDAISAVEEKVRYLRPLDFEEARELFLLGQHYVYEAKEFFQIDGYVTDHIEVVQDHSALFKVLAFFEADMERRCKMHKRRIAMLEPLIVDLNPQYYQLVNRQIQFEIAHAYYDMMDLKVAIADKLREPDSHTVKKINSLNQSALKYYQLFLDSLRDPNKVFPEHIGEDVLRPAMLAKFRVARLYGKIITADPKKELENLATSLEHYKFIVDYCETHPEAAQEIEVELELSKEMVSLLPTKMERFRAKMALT
In words: proximity ligation; 14 DIV hippocampal neurons transfected with mCherry, mCh-CHMP2b or mCh-CHMP2b^intron5, fixed; Duolink PLA with anti-KIAA1279 (rabbit) and anti-mCherry (mouse); puncta counted in the soma; 2 h vehicle or BIC/4AP.

For the substance “mCh-CHMP2b (WT charged multivesicular body protein 2b) (from UniProt Q9UQN3-1 1-213)”, the binding entry in experiment [1] and in experiment [2] was “binds” each time.
